Values of other authors, collected in patent publication US20060100245A1, “Substituted biphenyl-4-carboxylic acid arylamide analogues” (Neurogen Corporation, priority 2002, published 2006).
Some of these results come from one statement about several compounds together. At least one structure is not confirmed: it was looked up by name or label, or the drawing left a doubt.

Biological target: VR
Conditions: binding to VR, typical values, background; cited from earlier work

Compound: Cl.Cl.Cl.Cl.Cl.Cl.N.N.N.N.N.N.N.N.N.N.N.N.N.N.[O-2].[O-2].[Ru+3].[Ru+3].[Ru+4] [ruthenium red]
- Ki: ≥ 140 µM

Compound: Oc1cc2c(cc1O)CN(C(=S)NCCc1ccc(Cl)cc1)CCC2 [capsazepine]
- Ki: ≥ 140 µM
